Values from PubChem BioAssay AID1159584 (Peter MacCallum Cancer Centre, 2016)
Test: 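Knock-downs that harm CDH1-null cells more than parental MCF10A cells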 (primary screen). Cell system: human MCF10A breast epithelial cells, parental and CDH1-null. Reagent: siRNA against human genes. Measurement: 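Cell viability by CellTiter-Glo ATP luminescence, each line scaled to the mean of mock wells across plates, then CDH1-null over parental ratio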. Reading the numbers: CDH1-null / parental viability ratio: higher = CDH1-null cells survive relatively better than parental.
This is one part, drawn at random, of about 18,000 deposited reagents. Not all columns of the deposit are shown. The record does not give: the amount of reagent, the time to read-out.

CDH1-null / parental viability ratio,gene
1.41,CXCL16
1.1,HS3ST1
0.94,CERS4
1.19,RAB14
0.69,QTGAL
0.9,RIT1
1.14,DLL4
1,IGFBP5
0.87,SLC35A5
0.84,MYLK3
1.36,AVPR1A
1.04,PLEKHH3
1.24,KCNN2
1.06,HECTD2
0.8,FJX1
1.4,STC2
0.85,GPHN
0.66,SLC1A3
1.13,INPP1
0.71,GLS
1.03,RHBDL1
1.25,JARID2
0.87,NBL1
1.09,ATP1B2
1.41,OPTN
1.21,NSA2
1.18,TTI1
0.93,ARRDC1
1.29,NUFIP1
1.16,INHBB
0.98,AMBN
1.19,IL17C
1.02,ASGR2
0.75,USP17L9P
1.13,SPCS2P4
0.91,SLPI
0.85,MSH6
1.08,EDDM3A
1.4,PTPN13
0.91,NIPSNAP3A
1.18,MRE11
0.99,DEFA3

Entries listed so far whose gene name starts with D or d (2):
CDH1-null / parental viability ratio,gene
1.14,DLL4
0.99,DEFA3

The listing continues.
CDH1-null / parental viability ratio,gene
1.2,RAPGEF5
1.19,RPRM
0.93,PCDH11Y
0.99,METTL2B
0.96,OR4D5
1.14,PON3
0.77,KRTAP1-5
0.95,SLC4A3
0.97,PDE1B
1.04,PRR14L
0.99,SLC12A6
1.36,ISY1
0.94,SPINK7
0.9,AURKAIP1
1.14,MTRF1L
0.95,DNM3
0.97,SLC12A8
0.87,POLR3F
0.94,CLEC2D
1.08,SDF4
0.94,CHCT1
0.82,OR1D5
1.04,CHURC1
0.93,TRIM55
1.01,TPPP2
0.93,NIBAN3
